Laboratory results: article PMC12376677
Results are given in words; binding and its absence hold for the method and conditions named. Binding seen in cells or lysates may run through a third protein. A yes stands for co-enrichment or nearness to the bait. Other partners may have been found.

Amino acid sequences for entries named in this document (tags omitted). A change or cut given only in a name is not applied to a line headed by its entry.
UniProt P61956: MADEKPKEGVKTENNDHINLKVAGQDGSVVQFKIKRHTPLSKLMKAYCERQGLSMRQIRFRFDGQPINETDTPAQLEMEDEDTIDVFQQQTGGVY
UniProt O75925: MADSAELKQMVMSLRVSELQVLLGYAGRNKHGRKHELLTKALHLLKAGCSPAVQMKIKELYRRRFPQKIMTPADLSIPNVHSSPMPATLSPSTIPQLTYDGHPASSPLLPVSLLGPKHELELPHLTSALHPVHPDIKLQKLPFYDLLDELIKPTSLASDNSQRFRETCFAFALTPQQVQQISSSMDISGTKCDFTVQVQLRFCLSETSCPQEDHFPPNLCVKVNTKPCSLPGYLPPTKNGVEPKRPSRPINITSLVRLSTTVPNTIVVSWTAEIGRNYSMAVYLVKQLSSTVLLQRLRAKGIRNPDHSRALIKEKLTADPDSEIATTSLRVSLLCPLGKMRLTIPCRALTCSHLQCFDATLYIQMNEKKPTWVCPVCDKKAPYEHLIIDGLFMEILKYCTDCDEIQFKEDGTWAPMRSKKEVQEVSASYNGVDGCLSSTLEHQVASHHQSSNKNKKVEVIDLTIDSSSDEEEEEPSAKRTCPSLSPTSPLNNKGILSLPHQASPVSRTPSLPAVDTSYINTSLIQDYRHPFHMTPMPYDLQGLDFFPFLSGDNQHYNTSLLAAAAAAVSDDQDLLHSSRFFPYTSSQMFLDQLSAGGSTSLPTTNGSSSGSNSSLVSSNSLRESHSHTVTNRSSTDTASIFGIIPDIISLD

T1: DHX36 (human (endogenous in SKOV3 or COV504 cells)) (UniProt Q9H2U1)
T1 sequence: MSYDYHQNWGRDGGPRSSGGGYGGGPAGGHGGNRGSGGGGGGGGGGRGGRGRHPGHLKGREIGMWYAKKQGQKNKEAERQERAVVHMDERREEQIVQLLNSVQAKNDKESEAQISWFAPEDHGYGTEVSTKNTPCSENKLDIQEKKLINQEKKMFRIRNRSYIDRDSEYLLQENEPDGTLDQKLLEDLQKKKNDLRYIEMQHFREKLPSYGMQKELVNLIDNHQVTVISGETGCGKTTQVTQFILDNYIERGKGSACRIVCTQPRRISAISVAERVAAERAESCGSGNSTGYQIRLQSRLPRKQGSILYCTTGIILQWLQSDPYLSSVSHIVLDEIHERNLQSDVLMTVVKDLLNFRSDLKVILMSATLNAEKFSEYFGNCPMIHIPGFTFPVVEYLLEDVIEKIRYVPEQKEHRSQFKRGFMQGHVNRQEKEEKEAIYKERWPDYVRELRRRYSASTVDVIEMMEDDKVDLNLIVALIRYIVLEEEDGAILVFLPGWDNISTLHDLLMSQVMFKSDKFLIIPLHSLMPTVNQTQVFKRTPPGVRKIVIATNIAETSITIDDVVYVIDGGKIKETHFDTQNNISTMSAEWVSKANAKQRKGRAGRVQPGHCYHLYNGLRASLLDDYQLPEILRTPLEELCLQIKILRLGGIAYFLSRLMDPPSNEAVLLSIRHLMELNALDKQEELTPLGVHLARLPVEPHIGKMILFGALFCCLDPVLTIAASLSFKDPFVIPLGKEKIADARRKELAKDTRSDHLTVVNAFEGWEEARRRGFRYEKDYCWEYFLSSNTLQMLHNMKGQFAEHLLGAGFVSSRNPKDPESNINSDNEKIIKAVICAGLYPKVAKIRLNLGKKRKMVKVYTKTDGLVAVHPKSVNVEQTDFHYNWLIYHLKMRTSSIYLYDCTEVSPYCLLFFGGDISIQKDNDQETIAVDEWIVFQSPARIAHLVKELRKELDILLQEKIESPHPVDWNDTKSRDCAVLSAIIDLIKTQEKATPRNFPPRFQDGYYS

B1: SAE1 (protein, UniProt Q9UBE0 1-346)
chain: MVEKEEAGGGISEEEAAQYDRQIRLWGLEAQKRLRASRVLLVGLKGLGAEIAKNLILAGVKGLTMLDHEQVTPEDPGAQFLIRTGSVGRNRAEASLERAQNLNPMVDVKVDTEDIEKKPESFFTQFDAVCLTCCSRDVIVKVDQICHKNSIKFFTGDVFGYHGYTFANLGEHEFVEEKTKVAKVSQGVEDGPDTKRAKLDSSETTMVKKKVVFCPVKEALEVDWSSEKAKAALKRTTSDYFLLQVLLKFRTDKGRDPSSDTYEEDSELLLQIRNDVLDSLGISPDLLPEDFVRYCFSEMAPVCAVVGGILAQEIVKALSQRDPPHNNFFFFDGMKGNGIVECLGPK
B2: UBA2 (protein, UniProt Q9UBT2 1-640)
chain: MALSRGLPRELAEAVAGGRVLVVGAGGIGCELLKNLVLTGFSHIDLIDLDTIDVSNLNRQFLFQKKHVGRSKAQVAKESVLQFYPKANIVAYHDSIMNPDYNVEFFRQFILVMNALDNRAARNHVNRMCLAADVPLIESGTAGYLGQVTTIKKGVTECYECHPKPTQRTFPGCTIRNTPSEPIHCIVWAKYLFNQLFGEEDADQEVSPDRADPEAAWEPTEAEARARASNEDGDIKRISTKEWAKSTGYDPVKLFTKLFKDDIRYLLTMDKLWRKRKPPVPLDWAEVQSQGEETNASDQQNEPQLGLKDQQVLDVKSYARLFSKSIETLRVHLAEKGDGAELIWDKDDPSAMDFVTSAANLRMHIFSMNMKSRFDIKSMAGNIIPAIATTNAVIAGLIVLEGLKILSGKIDQCRTIFLNKQPNPRKKLLVPCALDPPNPNCYVCASKPEVTVRLNVHKVTVLTLQDKIVKEKFAMVAPDVQIEDGKGTILISSEEGETEANNHKKLSEFGIRNGSRLQADDFLQDYTLLINILHSEDLGKDVEFEVVGDAPEKVGPKQAEDAAKSITNGSDDGAQPSTSTAQEQDDVLIVDSDEEDSSNNADVSEEERSRKRKLDEKENLSAKRSRIEQKEELDDVIALD

Each molecule was assayed against T1, DHX36 (human (endogenous in SKOV3 or COV504 cells)) (assay: affinity purification with mass spectrometry; co-IP with anti-DHX36 antibody from cell lysate followed by MS).

binding	Molecule
binds	SUMO2 (from UniProt P61956)
binds	PIAS1 (from UniProt O75925 1-651)
binds	B1
binds	B2
